The targets with a hit were mostly taken out for another list; the other results follow. The data scatter; read single values as rough. Only a part is listed here, and it is no random draw.

Chains of the proteins cited; added tags and fusions are not shown. Lines headed by an entry give the natural chain unless they say otherwise; changes in a name come on top.
UniProt P49792, whole entry, looked up: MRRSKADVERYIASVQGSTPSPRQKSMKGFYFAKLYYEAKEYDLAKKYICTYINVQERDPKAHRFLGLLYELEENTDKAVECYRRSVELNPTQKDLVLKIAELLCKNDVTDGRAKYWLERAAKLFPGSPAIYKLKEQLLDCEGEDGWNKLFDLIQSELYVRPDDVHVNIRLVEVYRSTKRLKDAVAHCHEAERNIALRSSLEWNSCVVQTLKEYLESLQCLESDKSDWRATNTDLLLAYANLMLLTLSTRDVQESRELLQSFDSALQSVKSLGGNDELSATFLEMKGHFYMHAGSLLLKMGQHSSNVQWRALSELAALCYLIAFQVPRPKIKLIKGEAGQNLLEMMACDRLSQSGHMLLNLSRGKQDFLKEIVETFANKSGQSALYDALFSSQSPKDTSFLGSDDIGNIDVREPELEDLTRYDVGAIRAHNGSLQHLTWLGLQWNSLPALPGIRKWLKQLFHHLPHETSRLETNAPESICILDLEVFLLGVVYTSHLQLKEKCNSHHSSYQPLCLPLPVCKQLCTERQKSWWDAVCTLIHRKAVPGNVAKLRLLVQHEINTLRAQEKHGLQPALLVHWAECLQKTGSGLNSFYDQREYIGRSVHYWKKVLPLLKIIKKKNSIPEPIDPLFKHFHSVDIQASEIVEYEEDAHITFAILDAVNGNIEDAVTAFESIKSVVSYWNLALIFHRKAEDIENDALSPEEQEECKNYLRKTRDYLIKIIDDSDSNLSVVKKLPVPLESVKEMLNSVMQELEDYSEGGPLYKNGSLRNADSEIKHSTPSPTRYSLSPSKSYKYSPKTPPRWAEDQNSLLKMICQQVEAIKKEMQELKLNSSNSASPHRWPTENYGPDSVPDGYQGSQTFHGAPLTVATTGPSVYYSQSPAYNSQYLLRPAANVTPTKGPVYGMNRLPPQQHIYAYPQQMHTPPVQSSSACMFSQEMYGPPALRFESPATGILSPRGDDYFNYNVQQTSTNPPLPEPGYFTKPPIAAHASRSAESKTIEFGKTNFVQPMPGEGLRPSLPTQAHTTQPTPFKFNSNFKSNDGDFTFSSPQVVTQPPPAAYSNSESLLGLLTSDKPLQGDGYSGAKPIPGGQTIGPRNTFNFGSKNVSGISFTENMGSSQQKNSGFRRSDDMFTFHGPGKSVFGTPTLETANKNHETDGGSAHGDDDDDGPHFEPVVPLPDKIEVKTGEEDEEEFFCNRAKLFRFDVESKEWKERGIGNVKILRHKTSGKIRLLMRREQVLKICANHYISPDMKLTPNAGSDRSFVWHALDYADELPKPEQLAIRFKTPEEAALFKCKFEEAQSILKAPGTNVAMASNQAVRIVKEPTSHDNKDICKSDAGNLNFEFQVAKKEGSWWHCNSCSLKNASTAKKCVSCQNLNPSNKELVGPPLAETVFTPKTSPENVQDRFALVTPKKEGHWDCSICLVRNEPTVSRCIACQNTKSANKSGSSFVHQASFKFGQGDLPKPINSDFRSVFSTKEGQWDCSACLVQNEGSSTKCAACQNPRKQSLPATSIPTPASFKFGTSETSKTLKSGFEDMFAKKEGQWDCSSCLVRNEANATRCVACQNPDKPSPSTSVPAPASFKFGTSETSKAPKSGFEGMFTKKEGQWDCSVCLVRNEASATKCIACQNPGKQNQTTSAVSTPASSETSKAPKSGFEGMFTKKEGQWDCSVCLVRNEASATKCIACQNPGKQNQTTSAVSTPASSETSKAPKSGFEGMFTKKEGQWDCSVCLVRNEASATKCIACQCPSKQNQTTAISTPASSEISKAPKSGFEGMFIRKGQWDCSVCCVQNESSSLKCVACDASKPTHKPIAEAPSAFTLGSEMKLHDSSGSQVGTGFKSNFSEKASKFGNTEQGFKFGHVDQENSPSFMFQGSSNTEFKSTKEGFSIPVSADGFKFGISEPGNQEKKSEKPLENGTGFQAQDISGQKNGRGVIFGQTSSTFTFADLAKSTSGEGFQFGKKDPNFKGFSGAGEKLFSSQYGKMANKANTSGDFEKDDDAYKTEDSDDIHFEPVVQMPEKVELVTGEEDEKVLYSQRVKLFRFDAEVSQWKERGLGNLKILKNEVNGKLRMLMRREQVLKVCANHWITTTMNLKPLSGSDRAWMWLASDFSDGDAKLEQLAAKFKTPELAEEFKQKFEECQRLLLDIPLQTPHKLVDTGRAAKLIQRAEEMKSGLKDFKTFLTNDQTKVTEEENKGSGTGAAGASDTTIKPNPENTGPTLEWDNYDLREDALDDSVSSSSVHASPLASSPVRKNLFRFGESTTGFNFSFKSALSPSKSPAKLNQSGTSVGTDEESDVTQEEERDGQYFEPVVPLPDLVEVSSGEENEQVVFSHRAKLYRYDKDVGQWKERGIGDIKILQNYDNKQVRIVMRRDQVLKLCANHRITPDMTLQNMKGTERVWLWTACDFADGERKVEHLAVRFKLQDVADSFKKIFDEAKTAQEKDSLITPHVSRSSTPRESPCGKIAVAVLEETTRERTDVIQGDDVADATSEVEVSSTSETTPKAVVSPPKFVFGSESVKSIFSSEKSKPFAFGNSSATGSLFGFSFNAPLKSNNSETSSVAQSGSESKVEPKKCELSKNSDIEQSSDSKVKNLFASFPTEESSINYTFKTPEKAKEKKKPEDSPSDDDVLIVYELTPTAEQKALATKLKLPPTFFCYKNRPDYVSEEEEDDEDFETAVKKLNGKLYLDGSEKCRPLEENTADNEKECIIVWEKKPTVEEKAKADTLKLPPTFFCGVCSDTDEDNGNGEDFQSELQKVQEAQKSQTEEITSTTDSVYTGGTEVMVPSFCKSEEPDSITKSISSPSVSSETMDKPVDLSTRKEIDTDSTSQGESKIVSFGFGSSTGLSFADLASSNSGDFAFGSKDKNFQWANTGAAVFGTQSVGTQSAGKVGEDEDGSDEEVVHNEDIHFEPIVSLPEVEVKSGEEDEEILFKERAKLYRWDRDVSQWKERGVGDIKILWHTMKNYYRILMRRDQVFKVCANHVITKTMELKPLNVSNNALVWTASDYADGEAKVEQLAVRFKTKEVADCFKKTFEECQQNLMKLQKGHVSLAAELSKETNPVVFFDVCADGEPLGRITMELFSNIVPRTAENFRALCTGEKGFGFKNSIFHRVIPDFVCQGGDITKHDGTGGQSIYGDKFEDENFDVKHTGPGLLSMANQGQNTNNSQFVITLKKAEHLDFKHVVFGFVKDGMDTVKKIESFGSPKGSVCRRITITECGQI
UniProt P49459, whole entry, looked up: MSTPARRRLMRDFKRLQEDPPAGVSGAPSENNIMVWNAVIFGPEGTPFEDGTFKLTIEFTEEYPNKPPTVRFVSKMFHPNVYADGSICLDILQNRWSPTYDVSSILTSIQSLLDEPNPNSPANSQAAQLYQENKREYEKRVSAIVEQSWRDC
UniProt P48637: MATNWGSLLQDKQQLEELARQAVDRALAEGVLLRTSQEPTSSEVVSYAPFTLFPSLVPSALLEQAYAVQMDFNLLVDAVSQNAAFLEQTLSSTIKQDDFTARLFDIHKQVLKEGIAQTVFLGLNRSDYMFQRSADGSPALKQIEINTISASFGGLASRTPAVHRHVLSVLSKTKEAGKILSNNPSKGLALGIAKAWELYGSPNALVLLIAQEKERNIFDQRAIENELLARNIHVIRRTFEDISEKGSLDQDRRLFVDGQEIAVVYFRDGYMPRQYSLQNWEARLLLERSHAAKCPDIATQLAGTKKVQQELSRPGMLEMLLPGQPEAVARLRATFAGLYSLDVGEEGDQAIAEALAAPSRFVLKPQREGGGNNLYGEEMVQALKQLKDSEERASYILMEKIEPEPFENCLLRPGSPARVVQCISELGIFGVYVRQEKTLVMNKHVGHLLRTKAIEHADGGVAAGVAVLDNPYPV
UniProt P50991: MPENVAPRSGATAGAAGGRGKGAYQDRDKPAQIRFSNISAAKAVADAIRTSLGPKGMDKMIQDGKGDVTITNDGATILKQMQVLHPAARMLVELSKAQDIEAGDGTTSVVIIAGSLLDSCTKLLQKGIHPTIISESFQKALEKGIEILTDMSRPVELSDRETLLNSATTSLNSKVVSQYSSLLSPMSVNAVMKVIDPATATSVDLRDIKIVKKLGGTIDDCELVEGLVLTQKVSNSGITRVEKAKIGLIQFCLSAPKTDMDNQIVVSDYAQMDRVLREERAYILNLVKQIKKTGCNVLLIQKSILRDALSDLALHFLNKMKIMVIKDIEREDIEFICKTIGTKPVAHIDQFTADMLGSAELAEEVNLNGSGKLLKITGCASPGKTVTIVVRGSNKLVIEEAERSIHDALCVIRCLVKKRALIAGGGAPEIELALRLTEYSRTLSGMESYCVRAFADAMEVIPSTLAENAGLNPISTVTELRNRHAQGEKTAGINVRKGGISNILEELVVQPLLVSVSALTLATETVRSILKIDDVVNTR
UniProt P49589: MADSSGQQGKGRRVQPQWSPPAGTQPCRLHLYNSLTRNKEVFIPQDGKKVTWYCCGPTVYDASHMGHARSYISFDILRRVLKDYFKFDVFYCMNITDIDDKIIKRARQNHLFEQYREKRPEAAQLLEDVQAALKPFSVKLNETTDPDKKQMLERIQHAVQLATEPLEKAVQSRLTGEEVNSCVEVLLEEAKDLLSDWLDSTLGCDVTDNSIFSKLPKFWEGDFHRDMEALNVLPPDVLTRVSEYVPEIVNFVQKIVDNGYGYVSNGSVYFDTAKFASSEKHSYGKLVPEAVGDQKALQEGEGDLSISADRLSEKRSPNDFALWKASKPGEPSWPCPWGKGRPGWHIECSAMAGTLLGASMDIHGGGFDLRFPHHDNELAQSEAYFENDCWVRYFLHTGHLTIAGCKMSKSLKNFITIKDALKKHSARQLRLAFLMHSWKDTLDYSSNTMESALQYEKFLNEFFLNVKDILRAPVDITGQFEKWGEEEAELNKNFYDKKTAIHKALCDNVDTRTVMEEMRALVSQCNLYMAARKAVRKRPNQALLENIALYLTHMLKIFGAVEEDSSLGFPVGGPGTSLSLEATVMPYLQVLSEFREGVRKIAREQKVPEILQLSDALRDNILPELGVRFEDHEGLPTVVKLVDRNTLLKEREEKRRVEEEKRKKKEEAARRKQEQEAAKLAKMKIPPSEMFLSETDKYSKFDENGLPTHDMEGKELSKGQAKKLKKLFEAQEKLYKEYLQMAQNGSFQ
UniProt P50990: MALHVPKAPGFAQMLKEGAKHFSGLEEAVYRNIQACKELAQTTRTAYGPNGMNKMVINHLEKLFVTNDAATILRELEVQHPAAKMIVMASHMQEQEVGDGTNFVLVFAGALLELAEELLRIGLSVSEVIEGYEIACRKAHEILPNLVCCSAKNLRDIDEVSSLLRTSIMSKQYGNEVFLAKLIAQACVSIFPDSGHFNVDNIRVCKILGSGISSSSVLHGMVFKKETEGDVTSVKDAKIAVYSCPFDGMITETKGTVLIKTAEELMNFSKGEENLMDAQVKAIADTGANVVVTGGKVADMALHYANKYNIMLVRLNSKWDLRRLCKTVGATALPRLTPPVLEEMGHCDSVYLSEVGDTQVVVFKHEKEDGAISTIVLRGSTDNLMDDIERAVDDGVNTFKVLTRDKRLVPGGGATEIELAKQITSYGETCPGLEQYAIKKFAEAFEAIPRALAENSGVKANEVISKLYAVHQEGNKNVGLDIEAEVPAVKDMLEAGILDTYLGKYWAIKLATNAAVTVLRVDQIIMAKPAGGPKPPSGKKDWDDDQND
UniProt P46087: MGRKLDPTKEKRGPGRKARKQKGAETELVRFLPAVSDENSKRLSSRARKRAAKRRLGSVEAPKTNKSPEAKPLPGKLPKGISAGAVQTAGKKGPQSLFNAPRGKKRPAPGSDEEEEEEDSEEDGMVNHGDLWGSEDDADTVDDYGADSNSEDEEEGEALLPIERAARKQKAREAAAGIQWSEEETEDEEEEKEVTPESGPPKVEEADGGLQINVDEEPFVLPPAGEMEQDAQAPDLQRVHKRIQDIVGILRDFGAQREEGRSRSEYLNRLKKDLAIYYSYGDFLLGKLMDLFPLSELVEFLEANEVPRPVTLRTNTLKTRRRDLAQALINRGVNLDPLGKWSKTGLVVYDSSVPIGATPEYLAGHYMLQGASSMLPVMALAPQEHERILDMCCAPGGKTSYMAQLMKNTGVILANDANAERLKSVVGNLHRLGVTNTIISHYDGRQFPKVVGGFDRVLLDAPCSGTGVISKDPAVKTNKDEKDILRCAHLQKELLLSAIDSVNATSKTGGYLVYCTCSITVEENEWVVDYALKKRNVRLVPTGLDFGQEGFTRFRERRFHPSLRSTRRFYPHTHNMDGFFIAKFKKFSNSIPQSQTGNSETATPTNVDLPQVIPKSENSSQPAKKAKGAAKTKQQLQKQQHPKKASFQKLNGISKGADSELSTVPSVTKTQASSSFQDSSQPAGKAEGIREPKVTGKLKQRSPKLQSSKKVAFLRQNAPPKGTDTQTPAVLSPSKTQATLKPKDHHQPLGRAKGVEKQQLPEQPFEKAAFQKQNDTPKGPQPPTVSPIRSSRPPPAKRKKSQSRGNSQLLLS

Compound in this experiment: COC(=O)/C=C/c1ccccc1 [methyl cinnamate]
Kind of experiment: log2 ratio of iodoacetamide-alkyne labeling of the cysteine site, DMSO over compound (competition); higher = stronger covalent engagement of the cysteine by the compound, active = 1 or more. The conditions noted are these: 500 µM; treatment time 1 h; system: HEK293T cell lysate. The method in brief: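 Electrophile (500 µM) or vehicle was added to HEK293T lysate (2 mg/mL) for 1 h at ambient temperature before iodoacetamide alkyne labelling (1 h) and click coupling to sCIP-TMT reagents. After pooling, overnight trypsin digestion at 37 °C, streptavidin enrichment and acid elution, peptides were measured by Orbitrap Eclipse LC-MS/MS with FAIMS and quantified in FragPipe. Each cysteine's log2 competition ratio compares mean control-channel with mean compound-channel reporter intensity, control over compound. Data came from duplicate channels across three replicates, excluding cysteines quantified in only one replicate.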
As to MKI67 C226 (UniProt P46013), the “log2 ratio of iodoacetamide-alkyne labeling” value (from here on “log2 ratio”) was inactive: 0.216.
In the case of RANBP2 C2791 (UniProt P49792), the “log2 ratio” value is inactive: 0.221.
For MAP1B C1814 (UniProt P46821), the “log2 ratio” value was inactive: 0.24.
For UniProt P49459_C88 the value was inactive: -0.163; for GSS C294 (UniProt P48637), inactive: 0.377; for CAPZA2 C111 (UniProt P47755), inactive: 0.138.
For GPD2 C285 (UniProt P43304) the value was inactive: 0.422; for EMD C147 (UniProt P50402), inactive: 0.3; for MARCKSL1 C134 (UniProt P49006), inactive: 0.363.
Then RANBP2 C581 (UniProt P49792), with inactive: 0.247; and RANBP2 C82 (UniProt P49792), with inactive: -0.0816.
With CDK8 C25 (UniProt P49336), the “log2 ratio” value was inactive: 0.0754.
For IDH3A C359 (UniProt P50213), the “log2 ratio” value is inactive: 0.521.
For CCT5 C493 (UniProt P48643) the value was inactive: 0.243; for CCT4 C379 (UniProt P50991), inactive: 0.282.
Then CARS C27 (UniProt P49589), with inactive: 0.0806; and CCT8 C36 (UniProt P50990), with inactive: 0.176.
Then MSH2 C873 (UniProt P43246), with inactive: 0.468; and CCT8 C149 (UniProt P50990), with inactive: 0.0942; and UniProt P48047_C141, with inactive: 0.0847.
In the case of NOP2 C463 (UniProt P46087), the “log2 ratio” value is inactive: 0.173.
For UniProt P49674_C255 the value was inactive: -0.019; for UniProt P49840_C380, inactive: 0.198; for RANBP2 C105 (UniProt P49792), inactive: 0.238.
For RBM25 C110 (UniProt P49756) the value was inactive: 0.158; for FASN C1127 (UniProt P49327), inactive: 0.128.
For ST13 C209 (UniProt P50502) the value was inactive: 0.153; for ERF C189 (UniProt P50548), inactive: 0.336.
Turning to MAP1B C2088 (UniProt P46821), the “log2 ratio” value was inactive: 0.537.
For NAMPT C397 (UniProt P43490) the value was inactive: 0.0265; for PCYT1A C37 (UniProt P49585), inactive: 0.122; for MKI67 C643 (UniProt P46013), inactive: -0.066.
Then CCT4 C252 (UniProt P50991), with inactive: -0.13.
For FASN C2024 (UniProt P49327) the value was inactive: -0.229; for IDH3A C351 (UniProt P50213), inactive: 0.0711.
Take CCT8 C347 (UniProt P50990): the “log2 ratio” value was inactive: -0.461.
Then QARS C657 (UniProt P47897), with inactive: 0.138.
